Results: paper PMC6791687
Results are given in words; binding and its absence hold for the method and conditions named. In cells and extracts the contact can be indirect. Here binding means that the protein was enriched with, or labelled near, the bait; the list need not be complete. For some assays here: Where a sequence is shown, tags or fusion partners need not be part of it.

Sequences of proteins named here, by UniProt entry; tags and fusion partners are left off.
UniProt Q8W234: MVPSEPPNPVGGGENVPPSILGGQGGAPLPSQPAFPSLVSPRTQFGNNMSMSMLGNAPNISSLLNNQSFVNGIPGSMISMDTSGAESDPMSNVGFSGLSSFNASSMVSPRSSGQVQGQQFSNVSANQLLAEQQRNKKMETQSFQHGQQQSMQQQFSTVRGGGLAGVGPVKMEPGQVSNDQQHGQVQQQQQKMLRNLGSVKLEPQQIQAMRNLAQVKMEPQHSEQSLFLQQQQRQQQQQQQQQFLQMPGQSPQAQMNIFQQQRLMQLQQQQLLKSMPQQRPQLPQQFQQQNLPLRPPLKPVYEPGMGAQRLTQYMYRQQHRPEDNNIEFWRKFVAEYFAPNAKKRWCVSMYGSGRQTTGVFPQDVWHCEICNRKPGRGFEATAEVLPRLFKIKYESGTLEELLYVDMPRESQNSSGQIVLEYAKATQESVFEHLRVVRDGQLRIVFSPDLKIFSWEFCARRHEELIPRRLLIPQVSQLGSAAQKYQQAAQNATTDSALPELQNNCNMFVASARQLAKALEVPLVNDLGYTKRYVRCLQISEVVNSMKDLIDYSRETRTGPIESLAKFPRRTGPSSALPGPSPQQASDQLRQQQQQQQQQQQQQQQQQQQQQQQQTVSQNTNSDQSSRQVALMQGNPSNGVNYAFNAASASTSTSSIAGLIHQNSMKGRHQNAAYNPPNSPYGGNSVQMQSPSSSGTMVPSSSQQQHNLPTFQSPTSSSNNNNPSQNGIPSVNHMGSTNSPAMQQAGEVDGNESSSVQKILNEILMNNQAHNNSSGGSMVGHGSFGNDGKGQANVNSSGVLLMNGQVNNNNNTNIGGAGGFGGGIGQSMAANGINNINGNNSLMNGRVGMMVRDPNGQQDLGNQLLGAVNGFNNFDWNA

T1: FAMA-TbID-Venus (UBQ10pro::cFAMA-TbID-mVenus) (Arabidopsis thaliana) (UniProt Q56YJ8)
T1 sequence: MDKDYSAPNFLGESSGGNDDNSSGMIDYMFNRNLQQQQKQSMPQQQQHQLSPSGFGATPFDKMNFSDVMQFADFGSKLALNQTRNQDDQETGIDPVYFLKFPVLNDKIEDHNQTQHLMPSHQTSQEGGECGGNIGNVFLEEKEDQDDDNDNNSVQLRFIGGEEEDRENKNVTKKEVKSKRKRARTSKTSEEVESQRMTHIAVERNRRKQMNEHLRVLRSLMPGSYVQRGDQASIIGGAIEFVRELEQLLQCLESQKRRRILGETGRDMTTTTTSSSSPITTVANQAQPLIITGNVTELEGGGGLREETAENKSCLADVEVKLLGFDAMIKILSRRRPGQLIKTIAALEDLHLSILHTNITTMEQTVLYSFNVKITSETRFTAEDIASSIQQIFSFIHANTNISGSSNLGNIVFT

T2: FAMA-CFP (FAMApro::FAMA-CFP in fama-1) (Arabidopsis thaliana) (UniProt Q56YJ8)
T2 sequence: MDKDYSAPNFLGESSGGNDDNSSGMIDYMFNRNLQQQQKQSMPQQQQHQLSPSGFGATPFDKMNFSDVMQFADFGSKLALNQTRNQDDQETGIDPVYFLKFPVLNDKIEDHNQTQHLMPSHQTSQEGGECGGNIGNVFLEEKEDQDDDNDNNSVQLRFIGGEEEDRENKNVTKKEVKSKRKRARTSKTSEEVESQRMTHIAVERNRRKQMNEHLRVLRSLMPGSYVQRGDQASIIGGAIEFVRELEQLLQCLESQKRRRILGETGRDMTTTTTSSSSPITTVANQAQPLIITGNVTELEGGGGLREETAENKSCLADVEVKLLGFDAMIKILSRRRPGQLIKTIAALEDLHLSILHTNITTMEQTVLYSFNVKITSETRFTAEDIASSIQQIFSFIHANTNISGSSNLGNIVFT

T3: FAMA-TbID-Venus (FAMApro::FAMA-TbID-mVenus in fama-1) (Arabidopsis thaliana) (UniProt Q56YJ8)
T3 sequence: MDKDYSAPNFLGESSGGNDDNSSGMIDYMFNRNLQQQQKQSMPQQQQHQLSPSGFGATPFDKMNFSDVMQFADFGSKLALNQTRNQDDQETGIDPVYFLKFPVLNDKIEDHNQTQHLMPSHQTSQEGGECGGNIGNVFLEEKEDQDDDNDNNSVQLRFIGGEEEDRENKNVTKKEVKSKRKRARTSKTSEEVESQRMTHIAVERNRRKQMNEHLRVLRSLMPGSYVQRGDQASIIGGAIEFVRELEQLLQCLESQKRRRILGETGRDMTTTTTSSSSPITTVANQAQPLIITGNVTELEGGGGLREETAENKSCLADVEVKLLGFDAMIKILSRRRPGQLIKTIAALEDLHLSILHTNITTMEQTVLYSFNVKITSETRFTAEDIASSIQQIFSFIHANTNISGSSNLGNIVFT

B1: INDUCER OF CBF EXPRESSION 1 (protein, UniProt Q9LSE2 1-494)
chain: MGLDGNNGGGVWLNGGGGEREENEEGSWGRNQEDGSSQFKPMLEGDWFSSNQPHPQDLQMLQNQPDFRYFGGFPFNPNDNLLLQHSIDSSSSCSPSQAFSLDPSQQNQFLSTNNNKGCLLNVPSSANPFDNAFEFGSESGFLNQIHAPISMGFGSLTQLGNRDLSSVPDFLSARSLLAPESNNNNTMLCGGFTAPLELEGFGSPANGGFVGNRAKVLKPLEVLASSGAQPTLFQKRAAMRQSSGSKMGNSESSGMRRFSDDGDMDETGIEVSGLNYESDEINESGKAAESVQIGGGGKGKKKGMPAKNLMAERRRRKKLNDRLYMLRSVVPKISKMDRASILGDAIDYLKELLQRINDLHNELESTPPGSLPPTSSSFHPLTPTPQTLSCRVKEELCPSSLPSPKGQQARVEVRLREGRAVNIHMFCGRRPGLLLATMKALDNLGLDVQQAVISCFNGFALDVFRAEQCQEGQEILPDQIKAVLFDTAGYAGMI
B2: PHL (protein, UniProt F4IDB2 1-1325)
chain: MGVSFKISKVGRKFRPKISTELATPDSPKAIVLSGKPKATDDSNIGDVSGFSKPSLPDISPDHEVSFILSLYPNGYSIGKTSEAMQQISFRDVPKVLHPYDRAAEGLLSAIEAGRLPGDILEDIPCKFVDGVVICEVHDYRKHTSSQVSPVINKLRLKMSLENVVKDIPSMSDNSWTYGDLMEVESRILKALQPELCLDPLPRLDRLSKNPLTAKLDLSLSTLRRKRLRQMAEVTVMSQNKIQGKKVCIDRLPESSERGNLPGHLIMQQTNNNQAIQNLGTNMLAGLRSQPLQDAPNSSLALVPPQQQRYMGIGSTRNTQDQGSNSVSVSGASPGGLDAMLPYGSDSMNPGTSFHRKRESQEGQMSSMPGLNKRTRVSHMGPDGVPQQQLGQRMDGLHGSDTNWKNTLLQHQDMLGRSIQYPNTSIQRFSPHQMEGVMNQEGGPMQFPASQQGGMKYTSKEEPFETGKIDGGTRNNIPGVGSDANDLDPRIQSRMPHNAFIRSNFPQTSWNVNPGQQIEKEPKKEEQFSRRISAQSPRLSAGGPPQSPLSSKSGEFSGGSMGTHYGAVAAAQKDKAVTSIPAIGATQSVGSSANEAMQQRQHQAQMAAKRRTNSLPKTQVISTVGSPVSVNTISVPVNARSPSVGPQTLGDHAILDRFSKIERVAARYQLNCKKHKVDEYSRRPRVYAKQPLTVCLSNLSNEEVFKDEDEALSKSIFGGSMNTYKTRVIHFGQMERVMQGSVPSFIPRNRTRLVMSEKAVDGTVAWYQGDVDEGDVFQAEDFLLALPNTHIADLLATQFKSLMAREGYMIEEHIMAKPNRGDTGPISSHPNSAGGYPRGYSANDMQQYGDAVAGQASGEASKHGNTGNTPNNSTQNILANARMVPPTNSQALQMSQGLLSGVSMPMQPQQLDPQQSALLSSHSQQKNQQSMFTQQQHPQMQRPSMILPTNPLSAINSMSQSSGMQPGGQMANKYSPLQLQMLQQQQQAAVQKKIMMGLGSGVGMGMGMGMGMGMGSMGNSIAGLGALGNQLNMAGRGMGGTGISSSMSVPGIGNMGQNPMNLNPASNLNAISQQLRSGALTPQQNALFTQIRMGMANRGGVMGAPQTGISGVSGTRQMHPSSAGLSMLDQNRANLQRAAAMGNMGPPKLMPGMMNLYMNQQQQQQQLQQQPQQQQLQHQQQLQQPMSQPSQQLAQSPQQQQQLQQHEQPQQAQQQQQATASPLQSVLSPPQVGSPSAGITQQQLQQSSPQQMSQRTPMSPQQVNQRTPMSPQISSGAMHPMSTSNLEGCPASPQLSSQTMGSVGSITNSPMELQGPKNNSAGNNS
B3: FMO (protein, UniProt Q9FWW9 1-465)
chain: MATSHPDPTTSRHVAVIGAGAAGLVAARELRREGHSVVVLERGSQIGGVWAYTSQVEPDPLSLDPTRPVVHSSLYRSLRTNIPRECMGFTDFPFATRPHDGSRDPRRHPAHTEVLAYLRDFAKEFDIEEMVRFETEVVKAEQVAAEGEERGKWRVESRSSDGVVDEIYDAVVVCNGHYTEPRHALITGIDSWPGKQIHSHNYRVPDQFKDQVVIVIGSSASGVDICRDIAQVAKEVHVSSRSTSPDTYEKLTGYENLWLHSTIQIAREDGSVVFENGKTIYADTIMHCTGYKYYFPFLDTKGEVTVDDNRVGPLYKHVFPPALAPSLSFIGLPWQITPFPMFELQSKWVAAVLSGRVSLPSQDEMMEDTKAFYDKLEASGIPKRYTHLMPDDSQFEYDNWLADQCEYPRIEKWREQMFYIGFKRIYAQSSTYRDNWDDDHLIVEAYDDFVKFMSSYQELLPMLKT

biological target: T1, FAMA-TbID-Venus (UBQ10pro::cFAMA-TbID-mVenus) (Arabidopsis thaliana); experiment: proximity labelling; pairwise: FAMA-TbID-Venus or TbID-YFPNLS co-expressed with HA- or myc-tagged candidates in N. benthamiana leaves (UBQ10 promoter), no exogenous biotin; streptavidin bead pulldown of biotinylated proteins, immunoblot for the tag

| Molecule | binding |
| --- | --- |
| SEU-4xmyc (from UniProt Q8W234 1-877) | binds |

biological target: T2, FAMA-CFP (FAMApro::FAMA-CFP in fama-1) (Arabidopsis thaliana); experiment: affinity purification with mass spectrometry; FAMA-CFP from 15 g of 4-day-old Arabidopsis seedlings treated with MG-132 and cross-linked with formaldehyde (0.25% or 0.125%), GFP-Trap beads, LC-MS/MS; controls: nuclear GFP lines (SPCHpro::GFPNLS, MUTEpro::GFPNLS)

| Molecule | binding |
| --- | --- |
| B1 | binds |

biological target: T3, FAMA-TbID-Venus (FAMApro::FAMA-TbID-mVenus in fama-1) (Arabidopsis thaliana); experiment: proximity labelling; FAMApro::FAMA-TbID-Venus in 5-day-old Arabidopsis seedlings, 50 uM biotin for 0, 0.5 or 3 h; biotinylated proteins purified on streptavidin beads, on-bead digest, LC-MS/MS with label-free quantification; filtered for enrichment against WT, nuclear TbID (FAMAnucTbID) and untreated samples; three biological replicates

| Molecule | binding |
| --- | --- |
| B1 | binds |
| B2 | binds |
| B3 | binds |
